Test results reported in PubChem BioAssay AID1347423 (Functional Genomics Laboratory (NCATS/FGL), 2020).
Among all 52,000 sequences or so, about 210 (0.4%) were called active.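 Rule for the calls: active = gene whose silencing raises cell survival under the drug, median off-target-corrected z-score across its silencing RNAs 2 or more; inactive = the rest.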 The list shows a part of the results.

Assay: Resistance to Poly (ADP-Ribose) Polymerase inhibitor: Gene Identification via Genome-wide siRNA Screen
Details: mouse BRCA2 R2336H ES cells, olaparib, CellTiter-Glo viability; hits give high values
Method in brief: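 Mouse BRCA2 R2336H ES cells were reverse-transfected with siRNA (20 nM final), treated at 48 h with 500 nM olaparib, and read by CellTiter-Glo after 72 h. Scores: MAD-based z per siRNA, median per gene, seed off-target correction.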

Row | Sequence | z-score
1 | GGCCGAAUGGGUCUCUACATT against Gabrr2 | inactive: -3.09
2 | GGAGCGAGGAAUCAAUGUUTT against Prss8 | inactive: -1.58
3 | UAAUAUUGUCAGCUGGCUUTT against D830030K20Rik | inactive: -0.184
4 | CCGGCAAUUGCCUCAUUAUTT against Olfr1145 | inactive: -1.15
5 | GGAUGCCCAUCGUUAUGGUTT against AV340375 | inactive: -1.16
6 | GGAAAAGCAUCAAUUGAUGTT against Abca8b | inactive: -0.622
7 | GGGAAUAUUUUCAAGUUGCTT against Tmem14a | inactive: 0.342
8 | GCAUUAAGCACGAGAAAAATT against Slc18a2 | inactive: -0.824
9 | GCAAAACUUGGAACGAUUUTT against Ddx1 | inactive: 0.88
10 | GGAGAGGGAUAAGUUCUACTT against 9030205A07 | inactive: -0.384
11 | GGUACUAAAGUGUGAUGUGTT against Nnmt | inactive: 0.575
12 | GGAAAAAUCAAAAGUGUUGTT against 1500001M20Rik | inactive: 1.35
13 | GCUGAACUUAUCAACCAGATT against Btbd14b | inactive: -0.647
14 | GGACGAUGGAAAGCUCUAUTT against Olfr1229 | inactive: 0.0356
15 | GGCAGCUGUAGAGGUGUUCTT against 1110020L19Rik | inactive: -0.564
16 | GGAUGUGGACACCUUUGCATT against Pxmp2 | inactive: 0.482
17 | GCAUUACUGAUUCUUUCUUTT against V1rh4 | inactive: -0.188
18 | GGAAUUCGAUGCAUUUGUATT against Il18rap | inactive: 1.38
19 | GGUGAUCUCUUUAUUCUACTT against Olfr472 | inactive: -0.255
20 | GGAAGAGGUGAAAAUUACCTT against Plg | inactive: 0.761
21 | GCCACAAUGUCCAAAAUUATT against Rab6 | inactive: 2.52
22 | GGUAGCUAGUAUCCAAUAATT against Psen1 | inactive: -0.916
23 | GGUGGAGGGAAUGAACAUCTT against Slc1a5 | inactive: 2.55
24 | GGGCAACUUGGAAUAAAGATT against Dsg3 | inactive: 0.725
25 | GCCCGCCUAUUUGAAAGCATT against 1110034O07Rik | inactive: 0.623
26 | GGAAAUAGGCAAGUUGUUGTT against Luc7l2 | inactive: 0.529

As a short view, part of the list above:
Row | Sequence | z-score
19 | GGUGAUCUCUUUAUUCUACTT against Olfr472 | inactive: -0.255
20 | GGAAGAGGUGAAAAUUACCTT against Plg | inactive: 0.761
21 | GCCACAAUGUCCAAAAUUATT against Rab6 | inactive: 2.52
22 | GGUAGCUAGUAUCCAAUAATT against Psen1 | inactive: -0.916
23 | GGUGGAGGGAAUGAACAUCTT against Slc1a5 | inactive: 2.55

The list goes on.

Row | Sequence | z-score
27 | GGAUGAGGUGGAAAAAAUGTT against 1700029H14Rik | inactive: -2.16
28 | CCCUGGUAUUUCUGUUAUATT against 4930471M23Rik | inactive: -0.361
29 | CGGACAGAUACAAUAGCUATT against BC057627 | active: 3.74
30 | CCUGAAAUGCUAAGACUACTT against LOC380907 | inactive: -0.607
31 | GGGAAUGGAUGUUAUGAGUTT against Oas1a | inactive: -0.498
32 | GAUUCCUUUUUUGGAGGCGTT against Olfr45 | inactive: 0.725
33 | GGAAGCAGAUGCUAUUUAUTT against 2610031L17Rik | inactive: -2.15
34 | GAACUGGGCCUAGAACUUGTT against 0610012D14Rik | inactive: -1.57
35 | GGUUGUUUUGGAAUUGAUATT against Smu1 | inactive: -3.31
36 | GGCCCAGGAGAUUUUCCAATT against Proc | inactive: -0.188
37 | CGUCUACUUCGUACAAAUGTT against Gm1128 | inactive: 0.585
38 | GGUUUCGUCUGUUCCUUAATT against Dom3z | inactive: -0.887
39 | GGUGCGAGUGGAAUUCAUGTT against Rps28 | inactive: -3.22
40 | GGUGUUAGAAAGAGACCAGTT against Vamp3 | inactive: 1.81
41 | GGGACGAUGACAAGAACAATT against Mcfd2 | inactive: -0.944
42 | GGUACACUGCUUAUUGGUATT against Olfr857 | inactive: -0.206
43 | GCUGAGUUAUCGUUUAUGATT against Cldn18 | inactive: 0.284
44 | GCAUUGGUGUUUAGUUGGUTT against Gdf2 | inactive: -0.0547
45 | GGGCCCGAUGAAGCAAAAATT against Hnrpr | inactive: 2.05
46 | GCAUUAGGUAUUACUACCUTT against 9230118O15Rik | inactive: 0.35
47 | GGGUUUUGUCUUAAUGAAUTT against Scn10a | inactive: 0.71
48 | GGGAAUCCAUUAUUGCUGATT against 4933400C05Rik | inactive: 0.34
49 | GCAUGACAAAUCUAAAAAGTT against Pcdh7 | inactive: 1.17
50 | GGUAAUAGGCAAAGAUUUATT against Hdac9 | inactive: -0.538
51 | GGAGGAGAACACCUUGAAUTT against Trpc1 | inactive: -0.179
52 | GCUGUUAUUUAGGUUUCAGTT against Cxcl2 | inactive: 0.217

4 records drawn at random from those above, as already listed:
Row | Sequence | z-score
25 | GCCCGCCUAUUUGAAAGCATT against 1110034O07Rik | inactive: 0.623
20 | GGAAGAGGUGAAAAUUACCTT against Plg | inactive: 0.761
51 | GGAGGAGAACACCUUGAAUTT against Trpc1 | inactive: -0.179
40 | GGUGUUAGAAAGAGACCAGTT against Vamp3 | inactive: 1.81

More records.

Row | Sequence | z-score
53 | CGAUAUGUGUUUGUAAUGGTT against Atp6v1d | inactive: -0.78
54 | CCCUCACAAUGAUCGAUUUTT against Tkt | inactive: 0.55
55 | GGUGAUACCAUCACUUUGATT against Mark2 | inactive: -1.96
56 | GGAACAGAUUCUUAACUCCTT against BC050196 | inactive: -0.0368
57 | GGCUCCAAGGGAUUUGGUUTT against A2bp1 | inactive: 0.523
58 | GCCACUCCAUAUGCCAUAGTT against Brsk2 | inactive: -0.408
59 | GGACACCAAAAAGAAAGAATT against Ehd3 | inactive: -1.22
60 | GGUAUUGAGUGAUAACUACTT against B230308G19Rik | inactive: 0.508
61 | CGAAAUGCCUGAAAACUUCTT against Palmd | inactive: -0.239
62 | GGGCUAGCUAGCAAAAGCATT against 1110020C13Rik | inactive: -0.325
63 | GGAUAUUCAUAGUAACACATT against C87860 | inactive: -0.425
64 | GGUUUUAGGAGAACUGUCATT against Peo1 | inactive: -1.36
65 | CCGUUGUAUAUACCAGUAUTT against Syt1 | inactive: 1.35
66 | GGAUGAAGUCUUUCACUUUTT against 1810011O16Rik | inactive: -1.24
67 | GCACAACUCUGUUCUGUUGTT against Olfr491 | inactive: 0.892
68 | CCUCAUUUCCAAACUCAAATT against E330017E16 | inactive: 1.39
69 | GGUGGUGUAUUCUUUUUGATT against Ube2d3 | inactive: -1.73
70 | GCUCCAAGUGUUAAAAGAGTT against Eif2ak1 | inactive: 0.0571
71 | CCUGUCGUUCCUCCUUACATT against Spc18 | inactive: -0.61
72 | GGAUUGUUUGUCGAGUUUATT against Mknk2 | inactive: 0.713
73 | GGCCCAAGGAAUAAUCAAGTT against Satb2 | inactive: 0.743
74 | CGGUAACUGAGUCAGUUGUTT against 2310061J03Rik | inactive: 0.638
75 | GGAUGUGAUGACUCAUUUUTT against Arch | inactive: 1.09
76 | GCAGUGAGACUUUUAAUAGTT against Snx17 | inactive: 0.871
77 | CGUUCGAGUUGCUGAGCAUTT against Dyrk2 | inactive: 2
78 | GGCGCAAAAGGAAAAAAAGTT against 2700075B01Rik | inactive: 0.611

Row | Sequence | z-score
79 | GGUUAAGCUACAAAACAACTT against D130060C09Rik | inactive: -1.01
80 | CCAUCACCACUUACCUCUATT against Tesk1 | inactive: -0.845
81 | AGUAACCUGAGACAACACCTT against Zfp50 | inactive: -0.954
82 | GGAGAUCGAAAAGAAUUUCTT against Mx2 | inactive: 0.353
83 | GGUACUGAUUACUCUGUAUTT against Mrps17 | inactive: -1.66
84 | GGCCAAAGUGUUGAAAACATT against Ptger4 | inactive: 0.139
85 | GGUUCUGUCUUUUGGAAGUTT against Gpr21 | inactive: 2.72
86 | GGACCUGUAGCUAGCUUCUTT against Adamts10 | inactive: -0.392
87 | GCCUGUAAGAUACUGUACATT against Bbc3 | inactive: -0.749
88 | GCGGCUCCAUCAGAAAAUGTT against Htatip2 | inactive: -0.967
89 | CCUUGGUGUGCAUUGGAUGTT against Fbxo15 | inactive: -0.437
90 | GGGAUUCAGAUUCUAUCAGTT against 1700108E19Rik | inactive: 0.963
91 | GUUGGAGGAGAAACUCUGGTT against Hbb-bh1 | inactive: 1.68
92 | GGAUAUAAGUUCCAGUUUGTT against 4833436C18Rik | inactive: -1.51
93 | CGUAAGAUUGACUCUAGUATT against Prlpb | inactive: -0.826
94 | GGACCAUGUACAGGACUUUTT against Thap7 | inactive: -0.848
95 | GCUAUUCAAGUUUAUACGCTT against 4432412D15Rik | inactive: 0.268
96 | CCACCUGACUUUUGGAAGATT against Coro1b | inactive: 0.248
97 | GGAUAUUGAUGUUUCAAGUTT against Neo1 | inactive: 0.476
98 | GGAGCAAAUAGGGUUCAUUTT against Rhox10 | inactive: -1.25
99 | GCUCACCAAGGUCAACUUUTT against BC061212 | inactive: -0.264
100 | GUGACAUCAACUUAAUGGATT against Klra20 | inactive: 2.39
101 | GGGCGUGUCCUUGAAAGAATT against 6030440P17Rik | inactive: -1.46
102 | GGAAGGAGAUAUUGUGUUUTT against Sh3md2 | inactive: 0.0199
103 | CGAUCCAAUGGAUUUCAAGTT against Col3a1 | inactive: -0.0675
104 | GCCAUGGAAAGAGCCUUGATT against AI324046 | inactive: 0.845
